Measurements reported in PubChem BioAssay AID1259254 (NCATS, 2017)

Test: 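Gene knock-downs that lead to re-replication, shown by excess G2 DNA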 (primary screen)
System: human HCT116 colorectal cancer cells
Reagents: single siRNA against human genes
Duration: 3 days
Detection: 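Imaged Hoechst DNA stain sorts each cell into a cycle phase by DNA amount; per plate, G2 fraction set to 0% for non-targeting and 100% for GMNN siRNA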
Scale: G2 robust z-score and G2 cells, % of GMNN control: higher = more G2 cells, more excess DNA replication; raw share of cells in G2: higher = larger share of cells with G2 DNA content
Rule for the call: 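An siRNA counts as active if its G2 robust z-score lies at least 5 MADs above the screen median; here such calls match roughly 38% of GMNN control or more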
In all, the deposit lists about 59,000 reagents; below is an unselected part. About 1,550 of all reagents (2.6%) count as active. 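G2 share is only a proxy for re-replication; each gene was hit by three separate siRNAs, and active genes were retested.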 Raw values vary from plate to plate and are shown uncorrected. A number with no mark means an inactive call. Reagents against one gene are numbered here. No sequences are given here. Not given: the amount of reagent.

no.	Target gene	reagent	G2 robust z-score	G2 cells, % of GMNN control	raw share of cells in G2 (%)
1	OGFR	1	2.42	20	10.7
2	OGFR	2	-0.465	-0.303	6.25
3	OGFR	3	1.44	13.1	8.53
4	COX6B2	1	-0.283	0.975	4.85
5	COX6B2	2	2.66	21.7	14.3
6	COX6B2	3	1.46	13.2	11.8
7	CHRNB1	1	4.38	33.8	17.6
8	CHRNB1	2	-0.0837	2.38	5.59
9	CHRNB1	3	-1.21	-5.54	2.21
10	COPB1	1	2.36	19.6	12
11	COPB1	2	2.75	22.3	13.1
12	COPB1	3	-0.104	2.24	4.87
13	MAP2K1	1	-1.12	-4.93	3.98
14	MAP2K1	2	-1.32	-6.32	3.28
15	MAP2K1	3	-0.826	-2.84	3.02
16	LOC730098	1	-0.191	1.63	4.11
17	LOC730098	2	0.208	4.43	5.41
18	LOC730098	3	-0.509	-0.617	3.25
19	ARID3C	1	0.477	6.32	7.36
20	ARID3C	2	0.946	9.62	8.22
21	ARID3C	3	1.18	11.2	11.3
22	RPL5P1	1	3.33	26.4	13.7
23	RPL5P1	2	-0.797	-2.64	2.25
24	RPL5P1	3	-0.364	0.403	3.17
25	GBA1	1	3.22	25.6	15
26	GBA1	2	5.62 (active)	42.5	18.8
27	GBA1	3	9.7 (active)	71.2	31.1
28	SYNPO2L	1	3.89	30.3	18.1
29	SYNPO2L	2	-0.895	-3.33	2.99
30	SYNPO2L	3	-0.759	-2.37	3.91
31	RAB34	1	1.6	14.2	11.3
32	RAB34	2	-1.1	-4.76	2.47
33	RAB34	3	-0.713	-2.05	4.03
34	AREL1	1	-0.244	1.25	5.9
35	AREL1	2	0.97	9.8	8.03
36	AREL1	3	0.255	4.76	5.14
37	CPPED1	1	0.146	4	6.06
38	CPPED1	2	2.02	17.2	11.3
39	CPPED1	3	0.448	6.12	5.09
40	AFG2B	1	-0.833	-2.89	4.45
41	AFG2B	2	4.43	34.2	16.6
42	AFG2B	3	-0.563	-0.993	4
43	VEGFB	1	-0.567	-1.02	4.14
44	VEGFB	2	0.329	5.28	7.83
45	VEGFB	3	-0.878	-3.21	3.07
46	RCHY1	1	0.128	3.87	5.47
47	RCHY1	2	1.28	11.9	11.6
48	RCHY1	3	-0.59	-1.19	3.6
49	KNSTRN	1	0.695	7.86	7.42
50	KNSTRN	2	-0.89	-3.29	1.97
51	KNSTRN	3	-0.846	-2.99	1.98
52	ADGRV1	1	0.334	5.31	4.9
53	ADGRV1	2	-0.15	1.91	6.52
54	ADGRV1	3	2.43	20.1	11.5
55	ELFN1	1	2.03	17.3	10.1
56	ELFN1	2	0.174	4.19	5.18
57	ELFN1	3	-0.114	2.16	5.69
58	SLC27A1	1	0.96	9.72	10.1
59	SLC27A1	2	-0.646	-1.58	4.34
60	SLC27A1	3	-0.417	0.0367	4.3
61	TMEM145	1	0.224	4.55	5.3
62	TMEM145	2	1.02	10.1	6.97
63	TMEM145	3	-0.796	-2.63	2.47
64	KDM1A	1	1.42	12.9	8.3
65	KDM1A	2	-0.927	-3.55	2.97
66	KDM1A	3	-0.0118	2.88	7.53
67	ABCG2	1	-0.374	0.334	3.31
68	ABCG2	2	0.833	8.83	8.33
69	ABCG2	3	0.52	6.63	7.71
70	POLA1	1	-0.271	1.06	4.5
71	POLA1	2	1.99	17	10.8
72	POLA1	3	-0.697	-1.94	3.94
73	RSF1	1	0.186	4.28	7.89
74	RSF1	2	0.74	8.17	7.26
75	RSF1	3	0.162	4.1	5.37
76	NFAT5	1	-0.538	-0.815	5.62
77	NFAT5	2	-0.532	-0.775	3.01
78	NFAT5	3	-0.856	-3.06	2.51
79	DCDC2C	1	-0.182	1.69	3.76
80	DCDC2C	2	-1.23	-5.68	1.75
81	DCDC2C	3	-1.26	-5.93	1.4
82	PDZD2	1	-0.325	0.68	4.38
83	PDZD2	2	0.479	6.34	6.03
84	PDZD2	3	3.03	24.3	16.1
85	SPINT4	1	-1.32	-6.31	3.18
86	SPINT4	2	5.54 (active)	41.9	19.6
87	SPINT4	3	0.93	9.51	8.67
